These are yes or no findings as the source states them, for the method shown. In cells and extracts the contact can be indirect. Some results given as binding are weak or reduced against the parent protein; the word gives no strength. For part of these data: Tags and fused reporters may be left off the sequences shown.
T1: Gab1-Flag (UniProt Q13480)
T1 sequence: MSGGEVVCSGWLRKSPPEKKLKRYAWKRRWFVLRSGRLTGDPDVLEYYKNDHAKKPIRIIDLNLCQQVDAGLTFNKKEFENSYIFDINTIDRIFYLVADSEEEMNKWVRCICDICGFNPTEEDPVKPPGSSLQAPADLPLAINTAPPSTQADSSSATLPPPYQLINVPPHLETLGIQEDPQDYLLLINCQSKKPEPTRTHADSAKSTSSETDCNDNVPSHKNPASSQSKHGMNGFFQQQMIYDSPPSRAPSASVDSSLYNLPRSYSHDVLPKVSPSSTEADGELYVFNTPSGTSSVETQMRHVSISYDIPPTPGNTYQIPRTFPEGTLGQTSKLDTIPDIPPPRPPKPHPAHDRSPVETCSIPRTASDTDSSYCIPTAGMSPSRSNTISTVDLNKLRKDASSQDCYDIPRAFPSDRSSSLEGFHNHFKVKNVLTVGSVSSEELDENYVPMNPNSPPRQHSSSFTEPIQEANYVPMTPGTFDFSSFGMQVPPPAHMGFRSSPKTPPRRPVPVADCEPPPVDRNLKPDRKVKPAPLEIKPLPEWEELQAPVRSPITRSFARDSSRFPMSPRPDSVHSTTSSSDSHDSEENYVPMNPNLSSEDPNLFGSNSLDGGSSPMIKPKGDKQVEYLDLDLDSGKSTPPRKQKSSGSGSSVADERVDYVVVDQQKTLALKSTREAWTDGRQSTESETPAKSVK

Sequences of proteins named here, by UniProt entry; tags and fusion partners are left off.
UniProt Q9Y572: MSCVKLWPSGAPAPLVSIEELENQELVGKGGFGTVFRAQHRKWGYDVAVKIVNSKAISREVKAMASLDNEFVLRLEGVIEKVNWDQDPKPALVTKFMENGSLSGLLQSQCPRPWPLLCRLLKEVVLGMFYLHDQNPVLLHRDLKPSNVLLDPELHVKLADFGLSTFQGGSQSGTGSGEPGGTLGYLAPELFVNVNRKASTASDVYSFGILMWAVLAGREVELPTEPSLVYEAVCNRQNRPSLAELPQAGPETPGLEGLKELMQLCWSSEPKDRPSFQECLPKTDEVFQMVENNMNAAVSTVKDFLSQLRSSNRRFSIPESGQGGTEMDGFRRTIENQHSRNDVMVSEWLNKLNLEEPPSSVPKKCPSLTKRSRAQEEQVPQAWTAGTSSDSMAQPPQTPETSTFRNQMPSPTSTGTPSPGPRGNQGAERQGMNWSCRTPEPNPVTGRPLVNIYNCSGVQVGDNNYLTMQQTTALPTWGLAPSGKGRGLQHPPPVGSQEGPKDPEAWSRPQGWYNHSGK
UniProt Q13546: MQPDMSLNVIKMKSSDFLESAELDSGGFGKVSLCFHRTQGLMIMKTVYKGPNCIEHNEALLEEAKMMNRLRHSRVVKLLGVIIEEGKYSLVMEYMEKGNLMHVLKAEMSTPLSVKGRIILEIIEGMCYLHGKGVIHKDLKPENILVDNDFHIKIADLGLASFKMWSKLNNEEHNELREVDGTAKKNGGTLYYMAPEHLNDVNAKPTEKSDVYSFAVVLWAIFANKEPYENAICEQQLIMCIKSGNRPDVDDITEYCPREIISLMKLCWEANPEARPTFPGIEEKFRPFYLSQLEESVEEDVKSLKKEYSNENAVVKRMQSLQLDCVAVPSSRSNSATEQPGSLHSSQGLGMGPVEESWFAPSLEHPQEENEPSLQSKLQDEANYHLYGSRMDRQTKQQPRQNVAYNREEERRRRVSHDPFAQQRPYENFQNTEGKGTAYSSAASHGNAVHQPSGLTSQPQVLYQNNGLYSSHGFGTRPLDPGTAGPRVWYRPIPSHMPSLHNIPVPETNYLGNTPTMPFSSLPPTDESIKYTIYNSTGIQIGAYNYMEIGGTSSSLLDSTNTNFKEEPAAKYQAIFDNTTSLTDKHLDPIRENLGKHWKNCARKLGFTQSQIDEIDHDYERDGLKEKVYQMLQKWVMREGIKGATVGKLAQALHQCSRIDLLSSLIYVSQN

T2: recombinant glutathione-S-transferase-fused (GST-fused) Gab1 protein, full length (UniProt Q13480)
T2 sequence: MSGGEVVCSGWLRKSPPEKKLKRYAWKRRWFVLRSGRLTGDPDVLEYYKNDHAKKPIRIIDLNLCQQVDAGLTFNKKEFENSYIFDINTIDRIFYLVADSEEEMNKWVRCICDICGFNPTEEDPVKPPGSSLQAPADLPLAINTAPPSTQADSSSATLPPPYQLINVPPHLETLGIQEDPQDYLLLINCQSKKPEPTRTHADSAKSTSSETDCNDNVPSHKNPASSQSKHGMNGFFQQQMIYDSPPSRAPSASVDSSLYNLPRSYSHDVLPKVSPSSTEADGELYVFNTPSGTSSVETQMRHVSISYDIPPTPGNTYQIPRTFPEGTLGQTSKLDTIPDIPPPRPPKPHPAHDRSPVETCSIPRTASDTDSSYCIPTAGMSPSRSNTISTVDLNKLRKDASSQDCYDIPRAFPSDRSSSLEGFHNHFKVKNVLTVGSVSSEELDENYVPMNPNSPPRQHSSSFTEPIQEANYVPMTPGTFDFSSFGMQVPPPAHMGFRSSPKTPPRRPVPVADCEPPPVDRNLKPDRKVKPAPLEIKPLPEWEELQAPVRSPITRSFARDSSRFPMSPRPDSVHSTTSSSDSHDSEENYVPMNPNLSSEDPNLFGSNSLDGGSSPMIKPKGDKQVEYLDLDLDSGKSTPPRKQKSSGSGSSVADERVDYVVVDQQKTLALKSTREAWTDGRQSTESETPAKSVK


Legend:
Gab1-Flag = target: T1, Gab1-Flag; assay: co-IP; HEK293T cells co-transfected for 24 hours (Gab1-Flag with RIPK3-Myc, followed by T/S/Z for 3 hours; Gab1-Flag with AURKA-HA); IP with anti-Flag antibody or anti-IgG, immunoblotting
[1] = target: receptor-interaction protein kinase 3 (RIPK3), endogenous in HT29 cells (human (endogenous in HT29)) (UniProt Q9Y572); assay: co-IP; endogenous proteins in total lysates of HT29 cells (control or Gab1-knockdown), with or without T/S/Z for 3 hours; IP with anti-RIPK3 antibody or anti-IgG, immunoblotting
[2] = target: T2, recombinant glutathione-S-transferase-fused (GST-fused) Gab1 protein, full length; assay: pull-down; purified GST-Gab1 bound to glutathione-sepharose incubated overnight at 4°C with cleared HEK293T lysates with or without RIPK3 overexpression; washed 3 times with lysis buffer; immunoblotting with anti-RIPK3 antibody; only the target purified

Row | Molecule | binding (Gab1-Flag) | binding [1] | binding [2]
1 | RIPK3-Myc (from UniProt Q9Y572 1-518) | binds |  | 
2 | receptor-interaction protein kinase 1 (RIPK1), endogenous in HT29 cells (from UniProt Q13546 1-671) |  | binds | 
3 | RIPK3, full length, overexpressed in HEK293T cells (pull-down) (from UniProt Q9Y572 1-518) |  |  | binds
4 | RIPK3 of HEK293T cell lysates without RIPK3 overexpression (from UniProt Q9Y572 1-518) |  |  | binds
5 | Grb2-associated binder 1 (Gab1), endogenous in HT29 cells (protein, UniProt Q13480 1-694) MSGGEVVCSGWLRKSPPEKKLKRYAWKRRWFVLRSGRLTGDPDVLEYYKNDHAKKPIRIIDLNLCQQVDAGLTFNKKEFENSYIFDINTIDRIFYLVADSEEEMNKWVRCICDICGFNPTEEDPVKPPGSSLQAPADLPLAINTAPPSTQADSSSATLPPPYQLINVPPHLETLGIQEDPQDYLLLINCQSKKPEPTRTHADSAKSTSSETDCNDNVPSHKNPASSQSKHGMNGFFQQQMIYDSPPSRAPSASVDSSLYNLPRSYSHDVLPKVSPSSTEADGELYVFNTPSGTSSVETQMRHVSISYDIPPTPGNTYQIPRTFPEGTLGQTSKLDTIPDIPPPRPPKPHPAHDRSPVETCSIPRTASDTDSSYCIPTAGMSPSRSNTISTVDLNKLRKDASSQDCYDIPRAFPSDRSSSLEGFHNHFKVKNVLTVGSVSSEELDENYVPMNPNSPPRQHSSSFTEPIQEANYVPMTPGTFDFSSFGMQVPPPAHMGFRSSPKTPPRRPVPVADCEPPPVDRNLKPDRKVKPAPLEIKPLPEWEELQAPVRSPITRSFARDSSRFPMSPRPDSVHSTTSSSDSHDSEENYVPMNPNLSSEDPNLFGSNSLDGGSSPMIKPKGDKQVEYLDLDLDSGKSTPPRKQKSSGSGSSVADERVDYVVVDQQKTLALKSTREAWTDGRQSTESETPAKSVK |  | binds | 
6 | AURKA-HA (protein, UniProt O14965 1-403) MDRSKENCISGPVKATAPVGGPKRVLVTQQFPCQNPLPVNSGQAQRVLCPSNSSQRIPLQAQKLVSSHKPVQNQKQKQLQATSVPHPVSRPLNNTQKSKQPLPSAPENNPEEELASKQKNEESKKRQWALEDFEIGRPLGKGKFGNVYLAREKQSKFILALKVLFKAQLEKAGVEHQLRREVEIQSHLRHPNILRLYGYFHDATRVYLILEYAPLGTVYRELQKLSKFDEQRTATYITELANALSYCHSKRVIHRDIKPENLLLGSAGELKIADFGWSVHAPSSRRTTLCGTLDYLPPEMIEGRMHDEKVDLWSLGVLCYEFLVGKPPFEANTYQETYKRISRVEFTFPDFVTEGARDLISRLLKHNPSQRPMLREVLEHPWITANSSKPSNCQNKESASKQS | binds |  | 

Source: publication PMC10070107
